PubChem BioAssay AID1053208 | Peter MacCallum Cancer Centre, 2014
Test: 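Synthetic lethal interactions between gene loss and doxorubicin in osteosarcoma cells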 (primary screen). System: mouse osteosarcoma cells, early-passage culture from an engineered mouse model of fibroblastic bone tumour. Reagents: siRNA pool against mouse genes, 40 nM. Timing: about 120 h (48 h before drug, then 72 h with drug). Conditions: doxorubicin 100 nM for 72 h, roughly 30-40% inhibitory dose. Read-out: 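Viability read as ATP luminescence after 72 h of 100 nM doxorubicin or none, duplicate wells averaged, scaled to non-targeting siRNA, then expressed as robust z-scores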. Direction: viability z-score with doxorubicin: higher = more viable cells under doxorubicin; viability z-score without drug: higher = more viable cells with knock-down alone. Rule for the call: 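Called active if knock-down leaves viability unchanged without drug (z within -2 to 2) but lowers it with doxorubicin (z at or under -2)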.
The whole screen tested about 17,000 reagents; this is a random part of them. Of all reagents, 788 (4.7%) are marked active. 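Calls rest on z-score classes alone; an extra cut-off of viability at most 70% of control was not applied to them.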 Further read-outs or replicates are left out here.

| Target gene | combined z-score class | viability z-score with doxorubicin | viability z-score without drug | Outcome |
| --- | --- | --- | --- | --- |
| Brinp2 (GeneID 240843) | no change with or without drug | 1.57 | 1.85 | inactive |
| Rps20 (GeneID 67427) | low cell count with doxorubicin only | -3.37 | -1.18 | active |
| Ice2 (GeneID 93697) | no change with or without drug | 1.35 | -0.17 | inactive |
| Ccbe1 (GeneID 320924) | no change with or without drug | 0.22 | 1.18 | inactive |
| Zfp628 (GeneID 232816) | no change with or without drug | 0.79 | 0.84 | inactive |
| 4930429B21Rik (GeneID 67576) | no change with or without drug | 0.34 | 1.18 | inactive |
| 4930563M21Rik (GeneID 75258) | no change with or without drug | -0.67 | 0.34 | inactive |
| Pex5 (GeneID 19305) | no change with or without drug | 0 | 1.52 | inactive |
| Alox12e (GeneID 11685) | no change with or without drug | 0.11 | -0.17 | inactive |
| Hdac6 (GeneID 15185) | no change with or without drug | -0.56 | 0.17 | inactive |
| Bbs5 (GeneID 72569) | no change with or without drug | 0.45 | 0.51 | inactive |
| Mxd3 (GeneID 17121) | no change with or without drug | 0.34 | -0.17 | inactive |
| Tesmin (GeneID 17771) | no change with or without drug | -0.22 | -0.17 | inactive |
| Gimap5 (GeneID 317757) | no change with or without drug | -0.79 | -0.51 | inactive |
| Bcat1 (GeneID 12035) | no change with or without drug | 1.57 | 0.51 | inactive |
| Aspscr1 (GeneID 68938) | no change with or without drug | -1.12 | -0.51 | inactive |
| Dnm2 (GeneID 13430) | low cell count with doxorubicin only | -2.02 | -0.67 | active |
| Ugcg (GeneID 22234) | no change with or without drug | 0.45 | -0.84 | inactive |
| Gabarapl1 (GeneID 57436) | no change with or without drug | -1.8 | -1.18 | inactive |
| Hcrtr1 (GeneID 230777) | no change with or without drug | -0.9 | -0.84 | inactive |

Just “viability z-score without drug”, for 7 of the entries above:
Tesmin (GeneID 17771): -0.17
Gimap5 (GeneID 317757): -0.51
Bcat1 (GeneID 12035): 0.51
Aspscr1 (GeneID 68938): -0.51
Dnm2 (GeneID 13430): -0.67
Ugcg (GeneID 22234): -0.84
Gabarapl1 (GeneID 57436): -1.18

Next results follow.
| Target gene | combined z-score class | viability z-score with doxorubicin | viability z-score without drug | Outcome |
| --- | --- | --- | --- | --- |
| Or14a260 (GeneID 258610) | no change with or without drug | -0.9 | -0.84 | inactive |
| Sv2a (GeneID 64051) | no change with or without drug | 0.34 | 0.51 | inactive |
| Commd7 (GeneID 99311) | no change with or without drug | 0.67 | 1.18 | inactive |
| Pstpip2 (GeneID 19201) | no change with or without drug | 1.12 | 0.51 | inactive |
| Polr3h (GeneID 78929) | no change with or without drug | -1.24 | -0.84 | inactive |
| Sval1 (GeneID 71578) | no change with or without drug | -0.45 | 0 | inactive |
| Clip3 (GeneID 76686) | no change with or without drug | 0.45 | 0 | inactive |
| Mrpl36 (GeneID 94066) | no change with or without drug | 1.24 | 1.18 | inactive |
| Aamdc (GeneID 66273) | high cell count with doxorubicin only | 2.7 | 1.52 | inactive |
| Spic (GeneID 20728) | no change with or without drug | -0.22 | -1.01 | inactive |
| Ms4a5 (GeneID 269063) | no change with or without drug | -0.67 | -0.17 | inactive |
| Syap1 (GeneID 67043) | high cell count with doxorubicin only | 2.59 | 0.51 | inactive |
| Gimap1 (GeneID 16205) | high cell count with doxorubicin only | 2.02 | 0.17 | inactive |
| Tlr11 (GeneID 239081) | no change with or without drug | -0.22 | 0.17 | inactive |
| Eif2s3x (GeneID 26905) | no change with or without drug | -0.67 | -1.01 | inactive |
| Cbr4 (GeneID 234309) | no change with or without drug | 0.34 | -0.51 | inactive |
| Rwdd2b (GeneID 53858) | no change with or without drug | -1.12 | -0.84 | inactive |
| Tuba1c (GeneID 22146) | low cell count with and without drug | -2.02 | -2.53 | inactive |
| Lpcat3 (GeneID 14792) | low cell count without drug only | -0.9 | -2.02 | inactive |
| 1700009J07Rik (GeneID 75188) | no change with or without drug | -1.12 | 1.85 | inactive |
| Foxf2 (GeneID 14238) | high cell count without drug only | 0.34 | 2.87 | inactive |
| Klra7 (GeneID 16638) | no change with or without drug | 1.46 | 1.35 | inactive |
| Setd1b (GeneID 208043) | no change with or without drug | 0.79 | 0 | inactive |
| Sox2ot (GeneID 320478) | no change with or without drug | -0.34 | 0.17 | inactive |
| Or10ak16 (GeneID 258331) | no change with or without drug | 0.45 | 1.52 | inactive |
| Pax1 (GeneID 18503) | no change with or without drug | 1.12 | 0.51 | inactive |
| Oxld1 (GeneID 66431) | no change with or without drug | -0.56 | 0.84 | inactive |
| Dnah5 (GeneID 110082) | no change with or without drug | 0.22 | -0.51 | inactive |
| Itgax (GeneID 16411) | no change with or without drug | 0.67 | -0.84 | inactive |
| Mical2 (GeneID 320878) | no change with or without drug | -1.12 | -1.85 | inactive |
